In the supplement of paper PMC10849652:
This is one part of the list.

The chains behind the UniProt entries cited, without tags or fusion partners. Where a name states a change or a piece, a line headed by the entry shows the natural chain unless it says otherwise.
UniProt Q9NX61: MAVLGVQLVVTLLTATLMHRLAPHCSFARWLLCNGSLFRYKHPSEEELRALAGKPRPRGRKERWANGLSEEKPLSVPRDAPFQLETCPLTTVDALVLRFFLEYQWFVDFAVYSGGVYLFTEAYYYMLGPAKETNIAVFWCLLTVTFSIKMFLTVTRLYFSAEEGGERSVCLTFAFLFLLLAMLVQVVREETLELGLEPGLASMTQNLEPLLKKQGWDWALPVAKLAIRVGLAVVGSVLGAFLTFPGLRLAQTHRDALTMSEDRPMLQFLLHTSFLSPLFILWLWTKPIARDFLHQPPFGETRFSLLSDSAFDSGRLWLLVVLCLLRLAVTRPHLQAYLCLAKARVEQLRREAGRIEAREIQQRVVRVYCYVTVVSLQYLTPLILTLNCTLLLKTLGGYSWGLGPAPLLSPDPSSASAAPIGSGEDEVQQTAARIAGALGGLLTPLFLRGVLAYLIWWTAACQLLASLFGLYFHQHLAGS
UniProt Q6ZXV5: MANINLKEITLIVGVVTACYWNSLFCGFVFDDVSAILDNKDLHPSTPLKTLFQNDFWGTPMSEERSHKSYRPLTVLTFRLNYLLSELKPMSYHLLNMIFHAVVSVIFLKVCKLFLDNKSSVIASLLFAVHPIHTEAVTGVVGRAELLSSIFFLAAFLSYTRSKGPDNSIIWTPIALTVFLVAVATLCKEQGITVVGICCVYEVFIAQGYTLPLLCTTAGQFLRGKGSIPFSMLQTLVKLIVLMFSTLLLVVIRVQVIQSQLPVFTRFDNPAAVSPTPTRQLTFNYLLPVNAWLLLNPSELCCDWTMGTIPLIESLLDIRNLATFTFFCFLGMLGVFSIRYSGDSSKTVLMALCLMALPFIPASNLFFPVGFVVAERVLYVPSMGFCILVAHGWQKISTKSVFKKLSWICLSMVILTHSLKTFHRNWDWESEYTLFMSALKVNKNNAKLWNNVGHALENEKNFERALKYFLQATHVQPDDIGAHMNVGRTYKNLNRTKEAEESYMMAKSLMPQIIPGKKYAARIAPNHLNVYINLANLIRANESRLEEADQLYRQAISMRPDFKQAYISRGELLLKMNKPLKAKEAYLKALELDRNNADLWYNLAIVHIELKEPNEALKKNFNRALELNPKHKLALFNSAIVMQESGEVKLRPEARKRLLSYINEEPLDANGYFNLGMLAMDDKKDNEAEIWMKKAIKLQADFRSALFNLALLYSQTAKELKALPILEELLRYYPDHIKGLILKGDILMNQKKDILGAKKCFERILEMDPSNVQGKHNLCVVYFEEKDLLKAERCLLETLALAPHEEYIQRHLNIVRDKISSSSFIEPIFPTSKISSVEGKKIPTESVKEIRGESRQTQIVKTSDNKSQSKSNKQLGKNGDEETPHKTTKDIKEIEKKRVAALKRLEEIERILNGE
UniProt Q9NUM4, whole entry, looked up: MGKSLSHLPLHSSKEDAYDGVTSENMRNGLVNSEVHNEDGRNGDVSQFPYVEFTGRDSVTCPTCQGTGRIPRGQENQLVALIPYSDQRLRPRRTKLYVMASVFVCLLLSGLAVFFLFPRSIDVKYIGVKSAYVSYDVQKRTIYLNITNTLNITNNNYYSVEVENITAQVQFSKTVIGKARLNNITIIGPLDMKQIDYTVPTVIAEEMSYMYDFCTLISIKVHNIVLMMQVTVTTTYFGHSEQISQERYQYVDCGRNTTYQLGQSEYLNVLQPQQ
UniProt Q6NUQ4: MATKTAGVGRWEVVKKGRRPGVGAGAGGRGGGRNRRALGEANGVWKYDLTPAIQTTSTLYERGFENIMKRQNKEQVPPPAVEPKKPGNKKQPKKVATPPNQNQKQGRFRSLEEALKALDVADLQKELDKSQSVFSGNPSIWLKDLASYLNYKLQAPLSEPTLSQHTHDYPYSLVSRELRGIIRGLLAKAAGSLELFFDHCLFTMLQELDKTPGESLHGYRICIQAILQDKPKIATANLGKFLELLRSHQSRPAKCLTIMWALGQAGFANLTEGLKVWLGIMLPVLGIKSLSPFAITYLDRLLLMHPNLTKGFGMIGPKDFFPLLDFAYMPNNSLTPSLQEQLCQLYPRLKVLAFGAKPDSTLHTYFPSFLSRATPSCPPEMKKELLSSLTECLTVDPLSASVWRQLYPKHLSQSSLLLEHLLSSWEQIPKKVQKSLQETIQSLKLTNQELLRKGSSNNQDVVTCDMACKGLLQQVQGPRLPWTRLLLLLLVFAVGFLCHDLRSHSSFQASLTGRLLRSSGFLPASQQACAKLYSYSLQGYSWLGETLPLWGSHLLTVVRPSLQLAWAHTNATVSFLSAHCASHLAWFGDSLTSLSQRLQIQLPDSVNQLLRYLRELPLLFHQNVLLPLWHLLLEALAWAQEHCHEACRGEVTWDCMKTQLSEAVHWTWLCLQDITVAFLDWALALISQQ
UniProt Q5T3F8: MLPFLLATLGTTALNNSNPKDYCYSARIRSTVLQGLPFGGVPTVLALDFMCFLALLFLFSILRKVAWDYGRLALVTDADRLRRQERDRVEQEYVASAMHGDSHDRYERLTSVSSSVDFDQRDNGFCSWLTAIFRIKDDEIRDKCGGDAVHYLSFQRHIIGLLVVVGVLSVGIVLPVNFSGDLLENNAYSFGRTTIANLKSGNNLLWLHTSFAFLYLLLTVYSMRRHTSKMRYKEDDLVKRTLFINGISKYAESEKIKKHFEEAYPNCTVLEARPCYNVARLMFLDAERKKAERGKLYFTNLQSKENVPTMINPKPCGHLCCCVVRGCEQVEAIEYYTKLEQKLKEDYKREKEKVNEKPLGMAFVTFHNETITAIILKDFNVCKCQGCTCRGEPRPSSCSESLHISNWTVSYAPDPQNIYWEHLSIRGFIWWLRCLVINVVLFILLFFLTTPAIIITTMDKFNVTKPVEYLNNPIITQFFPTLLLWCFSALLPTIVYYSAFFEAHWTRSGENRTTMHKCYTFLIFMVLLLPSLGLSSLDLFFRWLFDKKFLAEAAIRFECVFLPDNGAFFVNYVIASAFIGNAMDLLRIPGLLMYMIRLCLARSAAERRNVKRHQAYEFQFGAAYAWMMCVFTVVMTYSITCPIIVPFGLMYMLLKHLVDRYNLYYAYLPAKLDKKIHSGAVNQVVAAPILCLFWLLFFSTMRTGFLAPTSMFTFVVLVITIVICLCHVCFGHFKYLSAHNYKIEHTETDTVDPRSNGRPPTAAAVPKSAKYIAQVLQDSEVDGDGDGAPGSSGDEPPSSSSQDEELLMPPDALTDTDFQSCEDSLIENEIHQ
UniProt Q96I45: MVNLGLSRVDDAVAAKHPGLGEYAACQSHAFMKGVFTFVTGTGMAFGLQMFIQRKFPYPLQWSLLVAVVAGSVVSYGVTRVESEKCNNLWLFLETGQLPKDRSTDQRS
UniProt Q8N131: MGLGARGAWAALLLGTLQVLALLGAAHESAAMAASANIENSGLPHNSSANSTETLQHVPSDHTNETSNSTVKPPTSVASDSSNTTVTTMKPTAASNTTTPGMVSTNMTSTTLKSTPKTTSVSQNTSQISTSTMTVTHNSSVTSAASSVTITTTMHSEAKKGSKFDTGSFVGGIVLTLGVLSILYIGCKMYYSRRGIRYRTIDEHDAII
UniProt Q9NQ34: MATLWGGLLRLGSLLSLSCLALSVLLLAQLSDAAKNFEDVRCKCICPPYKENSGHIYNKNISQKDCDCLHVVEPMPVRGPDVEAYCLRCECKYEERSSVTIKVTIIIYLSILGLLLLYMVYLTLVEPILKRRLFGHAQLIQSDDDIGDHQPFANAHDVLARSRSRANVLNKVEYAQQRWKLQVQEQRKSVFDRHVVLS
UniProt Q96AN5: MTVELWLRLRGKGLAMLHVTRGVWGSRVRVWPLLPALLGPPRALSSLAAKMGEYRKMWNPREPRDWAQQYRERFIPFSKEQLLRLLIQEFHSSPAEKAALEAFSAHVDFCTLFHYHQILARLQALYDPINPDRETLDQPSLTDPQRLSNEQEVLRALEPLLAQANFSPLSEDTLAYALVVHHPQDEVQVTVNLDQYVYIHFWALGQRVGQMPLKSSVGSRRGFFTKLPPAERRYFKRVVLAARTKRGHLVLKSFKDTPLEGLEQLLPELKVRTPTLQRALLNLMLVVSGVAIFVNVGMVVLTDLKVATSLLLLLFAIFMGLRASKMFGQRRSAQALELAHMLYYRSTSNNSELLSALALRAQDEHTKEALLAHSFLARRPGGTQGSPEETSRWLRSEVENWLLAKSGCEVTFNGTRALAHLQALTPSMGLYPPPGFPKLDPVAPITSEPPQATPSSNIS
UniProt O94876, whole entry, looked up: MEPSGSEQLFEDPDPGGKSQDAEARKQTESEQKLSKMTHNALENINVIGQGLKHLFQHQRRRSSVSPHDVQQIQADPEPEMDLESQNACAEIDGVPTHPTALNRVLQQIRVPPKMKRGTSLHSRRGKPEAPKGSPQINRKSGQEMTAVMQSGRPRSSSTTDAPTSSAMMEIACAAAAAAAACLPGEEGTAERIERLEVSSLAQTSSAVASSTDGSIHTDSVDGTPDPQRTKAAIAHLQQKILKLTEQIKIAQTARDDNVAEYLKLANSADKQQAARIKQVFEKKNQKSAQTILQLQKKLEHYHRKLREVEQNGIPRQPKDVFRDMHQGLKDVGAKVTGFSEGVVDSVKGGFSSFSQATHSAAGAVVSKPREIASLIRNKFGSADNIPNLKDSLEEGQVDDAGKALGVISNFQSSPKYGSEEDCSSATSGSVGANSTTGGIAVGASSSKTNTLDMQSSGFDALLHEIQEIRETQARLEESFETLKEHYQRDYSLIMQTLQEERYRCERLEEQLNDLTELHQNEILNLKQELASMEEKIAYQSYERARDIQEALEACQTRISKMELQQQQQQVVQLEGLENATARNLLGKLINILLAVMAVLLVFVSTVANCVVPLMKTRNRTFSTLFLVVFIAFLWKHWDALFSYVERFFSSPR
UniProt Q9P0S9: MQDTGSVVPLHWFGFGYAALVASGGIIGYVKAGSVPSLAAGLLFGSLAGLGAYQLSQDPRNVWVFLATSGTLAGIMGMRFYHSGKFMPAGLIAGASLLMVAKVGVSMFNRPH
UniProt Q9NWH2: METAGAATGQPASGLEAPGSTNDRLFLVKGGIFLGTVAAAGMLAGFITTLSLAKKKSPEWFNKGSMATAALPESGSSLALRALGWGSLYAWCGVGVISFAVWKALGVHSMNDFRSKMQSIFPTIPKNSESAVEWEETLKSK
UniProt Q0VDI3: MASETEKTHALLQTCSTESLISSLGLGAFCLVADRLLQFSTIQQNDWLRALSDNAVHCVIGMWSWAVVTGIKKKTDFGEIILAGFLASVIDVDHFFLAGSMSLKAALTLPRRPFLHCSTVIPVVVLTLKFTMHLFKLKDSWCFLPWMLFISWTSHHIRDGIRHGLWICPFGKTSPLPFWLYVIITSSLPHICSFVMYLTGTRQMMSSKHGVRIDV
UniProt Q9BX74: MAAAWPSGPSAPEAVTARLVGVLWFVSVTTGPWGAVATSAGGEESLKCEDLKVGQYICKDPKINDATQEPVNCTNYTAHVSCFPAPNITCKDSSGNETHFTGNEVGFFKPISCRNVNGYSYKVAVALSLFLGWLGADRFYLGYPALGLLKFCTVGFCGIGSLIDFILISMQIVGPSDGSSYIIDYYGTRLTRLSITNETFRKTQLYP
UniProt O95807: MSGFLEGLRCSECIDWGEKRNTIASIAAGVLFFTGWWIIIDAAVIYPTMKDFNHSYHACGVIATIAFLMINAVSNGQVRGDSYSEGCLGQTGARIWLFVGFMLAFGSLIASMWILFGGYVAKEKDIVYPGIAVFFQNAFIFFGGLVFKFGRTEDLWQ
UniProt O75069: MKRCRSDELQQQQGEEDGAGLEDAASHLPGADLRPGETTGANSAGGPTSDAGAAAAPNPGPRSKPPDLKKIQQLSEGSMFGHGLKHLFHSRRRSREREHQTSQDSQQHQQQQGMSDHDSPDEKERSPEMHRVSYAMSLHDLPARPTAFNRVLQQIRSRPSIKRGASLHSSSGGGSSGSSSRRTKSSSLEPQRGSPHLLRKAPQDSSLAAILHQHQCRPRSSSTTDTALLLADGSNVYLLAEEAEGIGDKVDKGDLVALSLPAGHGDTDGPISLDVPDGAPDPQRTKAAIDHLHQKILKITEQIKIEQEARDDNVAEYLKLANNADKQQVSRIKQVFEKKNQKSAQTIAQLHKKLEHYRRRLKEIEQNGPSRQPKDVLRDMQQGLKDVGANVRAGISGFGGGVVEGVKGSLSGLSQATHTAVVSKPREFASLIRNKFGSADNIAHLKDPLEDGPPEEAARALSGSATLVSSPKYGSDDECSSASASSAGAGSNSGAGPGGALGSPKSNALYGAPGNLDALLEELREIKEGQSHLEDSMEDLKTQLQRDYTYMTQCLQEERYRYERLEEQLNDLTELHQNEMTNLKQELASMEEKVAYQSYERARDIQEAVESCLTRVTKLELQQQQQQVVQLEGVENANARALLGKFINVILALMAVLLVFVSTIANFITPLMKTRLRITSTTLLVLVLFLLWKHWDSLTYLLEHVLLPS

Columns and labels:
Assay in all cases: log2 fold change, soluble protein after heating vs DMSO (PISA); higher = thermal stabilisation; K562 cells, 10 uM, 30 min; active = over 0.2 and 3.5 SD of the protein, either way, in both replicates (recomputed)
[1] = compound: CS(=O)(=O)c1ccc(-c2cnc(N)c(C(=O)Nc3ccccc3)n2)cc1
In short: (§1)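 K562 cells at 2×10^6 cells/mL were treated with 10 μM compound for 30 min. Aliquots were heated for 3 min across 48°C-58°C, pooled, and extracted in PBS with 0.5% NP-40 at 4°C; soluble protein was the supernatant after 21,000xg for 90 min. Soluble protein was quantified by TMTpro 16plex LC-MS/MS with channel sums equalised, and reported as log2 fold change in thermal stability against DMSO controls, with values from duplicates.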

[2] = compound: C[C@@H](Oc1cc(-c2cnn(C3CCNCC3)c2)cnc1N)c1c(Cl)ccc(F)c1Cl [crizotinib]
In short: as §1

[3] = compound: C[C@@H]1COCCN1C2=NC(=NC(=C2)C3(CC3)S(=O)(=O)C)C4=C5C=CNC5=CC=C4
In short: as §1

[4] = compound: C[C@H](C1=CC=C(C=C1)C(=O)NC2=C3C=CNC3=NC=C2)N
In short: as §1

[5] = compound: Cc1cc(Nc2cc(CN3CCOCC3)c3nc(C)c(Cc4ccc(Cl)cc4F)n3n2)n[nH]1 [gandotinib]
In short: as §1

[6] = compound: Cc1cc(SCc2sc(-c3ccc(C(F)(F)F)cc3)nc2C)ccc1OCC(=O)O
In short: as §1

[7] = compound: Cc1ccc(-n2nc(C(C)(C)C)cc2NC(=O)Nc2ccc(OCCN3CCOCC3)c3ccccc23)cc1 [doramapimod]
In short: as §1

[8] = compound: Cc1ccc(C(=O)N(CCCN)[C@@H](c2nc3cc(Cl)ccc3c(=O)n2Cc2ccccc2)C(C)C)cc1 [ispinesib]
In short: as §1

[9] = compound: Cc1ccc(NC(=O)c2ccc(CN3CC[C@H](N(C)C)C3)c(C(F)(F)F)c2)cc1Nc1nccc(-c2cncnc2)n1 [bafetinib]
In short: as §1

[10] = compound: Cc1cccc(CC(=O)N2CCc3c2ccc(-c2cn(C)c4ncnc(N)c24)c3F)n1
In short: as §1

[11] = compound: Cc1cn(-c2cc(NC(=O)c3ccc(C)c(Nc4nccc(-c5cccnc5)n4)c3)cc(C(F)(F)F)c2)cn1 [nilotinib]
In short: as §1

[12] = compound: Cc1nc(Nc2n[nH]c3c2CN(C(=O)N[C@H](CN(C)C)c2ccccc2)C3(C)C)c2sccc2n1
In short: as §1

[13] = compound: Cc1nc(Nc2ncc(C(=O)Nc3c(C)cccc3Cl)s2)cc(N2CCN(CCO)CC2)n1 [dasatinib]
In short: as §1

[14] = compound: Cc1ncc(-c2ccnc(Nc3ccc(S(C)(=O)=O)cc3)n2)n1C(C)C
In short: as §1

[15] = compound: Cn1cc(-c2ccc3c(c2)CCN3C(=O)Cc2cccc(C(F)(F)F)c2)c2c(N)ncnc21
In short: as §1

[16] = compound: Cn1cc(-c2ccc3nnc(C(F)(F)c4ccc5ncccc5c4)n3n2)cn1
In short: as §1

[17] = compound: Cn1cncc1[C@@](N)(c1ccc(Cl)cc1)c1ccc2c(c1)c(-c1cccc(Cl)c1)cc(=O)n2C [tipifarnib]
In short: as §1

[18] = compound: FC(F)(F)c1ccc(/C=C/c2nc(COc3ccc(CCCCn4ccnn4)cc3)co2)cc1 [mubritinib]
In short: as §1

[19] = compound: C[C@H](Nc1ncnc2nc[nH]c12)c1cc2cccc(Cl)c2c(=O)n1-c1ccccc1 [duvelisib]
In short: as §1

[20] = compound: Cc1cc(Nc2cc(N3CCN(C)CC3)nc(Sc3ccc(NC(=O)C4CC4)cc3)n2)n[nH]1 [tozasertib]
In short: as §1

Measured: log2 fold change

TMEM161A (UniProt Q9NX61)
inactive: [1] -0.038 | [2] -0.026 | [3] -0.006 | [4] 0.001 | [5] -0.156 | [6] 0.051 | [7] -0.023 | [8] -0.251 | [9] -0.156 | [10] 0.043 | [11] -0.157 | [12] 0.023 | [13] -0.09 | [14] -0.021 | [15] -0.05 | [16] -0.025 | [17] -0.165 | [18] 0.027

TMUB1 (UniProt Q9BVT8)
inactive: [1] -0.136 | [3] 0.335 | [4] 0.021 | [19] 0.18 | [5] 0.01 | [20] 0.054 | [6] 0 | [8] 0.006 | [9] 0.016 | [10] -0.306 | [11] 0.037 | [12] -0.035 | [13] -0.129 | [14] -0.046 | [15] -0.051 | [16] 0.194 | [17] -0.053 | [18] 0.021

TMTC3 (UniProt Q6ZXV5)
inactive: [1] 0.054 | [2] -0.088 | [3] -0.052 | [4] 0.072 | [5] -0.039 | [6] 0.038 | [7] 0.018 | [8] -0.188 | [9] -0.07 | [10] -0.02 | [11] -0.036 | [12] 0 | [13] -0.055 | [14] 0.015 | [15] -0.051 | [16] 0.061 | [17] -0.018 | [18] 0.011

TMEM173 (UniProt Q86WV6)
inactive: [1] 0.042 | [2] 0.147 | [3] 0.041 | [4] 0.004 | [5] -0.151 | [6] 0.078 | [7] 0.023 | [8] 0.037 | [9] 0.007 | [10] 0.019 | [11] -0.129 | [12] -0.013 | [13] -0.156 | [14] 0.003 | [15] 0.001 | [16] -0.046 | [17] 0.021 | [18] 0.066

TMEM106B (UniProt Q9NUM4)
inactive: [1] -0.024 | [3] 0.389 | [4] -0.054 | [5] -0.021 | [6] 0 | [7] 0.014 | [9] -0.094 | [10] 0.035 | [11] -0.015 | [12] 0.02 | [13] 0.098 | [14] -0.007 | [15] 0.083 | [17] 0.029 | [18] 0.023
active: [2] -0.382

TMEM214 (UniProt Q6NUQ4)
inactive: [1] -0.018 | [2] 0.123 | [3] -0.043 | [4] 0.067 | [5] -0.079 | [6] 0.048 | [7] -0.013 | [8] 0.072 | [9] 0.017 | [10] 0.029 | [11] -0.117 | [12] -0.02 | [13] -0.071 | [14] 0.023 | [15] -0.022 | [16] -0.041 | [17] -0.047 | [18] 0.005

TMEM63B (UniProt Q5T3F8)
inactive: [1] -0.127 | [2] 0.045 | [3] -0.042 | [4] -0.014 | [5] -0.028 | [6] 0.015 | [7] -0.047 | [9] 0.013 | [10] 0.002 | [11] -0.008 | [12] -0.021 | [13] 0.026 | [14] -0.061 | [15] 0.006 | [16] 0.004 | [17] 0.008 | [18] 0.047
active: [8] -0.312

TLR4 (UniProt O00206)
inactive: [1] 0.078 | [4] 0.274 | [19] 0.188 | [5] 0 | [20] -0.167 | [6] -0.117 | [8] -0.028 | [9] -0.061 | [10] -0.126 | [13] 0.173 | [15] -0.078 | [16] 0.002 | [17] 0.115

TMEM141 (UniProt Q96I45)
inactive: [1] 0.057 | [2] 0.151 | [4] -0.026 | [19] 0.13 | [5] 0.086 | [20] -0.032 | [6] -0.032 | [7] 0.076 | [9] -0.026 | [10] 0.274 | [11] 0.012 | [12] -0.029 | [13] 0 | [14] -0.022 | [15] 0.048 | [17] 0.056 | [18] 0.013

TMEM123 (UniProt Q8N131)
inactive: [1] -0.053 | [3] 0.015 | [19] 0.036 | [20] -0.054 | [6] -0.267 | [9] 0.068 | [11] -0.034 | [12] 0.053 | [13] 0.093 | [14] -0.003 | [17] 0.139 | [18] -0.054

TMEM9B (UniProt Q9NQ34)
inactive: [1] -0.035 | [2] -0.011 | [3] 0.105 | [4] 0.061 | [5] -0.116 | [7] 0.023 | [8] -0.211 | [9] -0.039 | [10] 0.036 | [11] 0.005 | [12] 0.009 | [14] -0.015 | [15] 0.051 | [16] 0.164 | [17] -0.108 | [18] 0.009

TMEM143 (UniProt Q96AN5)
inactive: [1] 0 | [2] 0.218 | [20] -0.045 | [7] 0.023 | [18] -0.148

TMCC1 (UniProt O94876)
inactive: [1] -0.102 | [3] -0.017 | [4] 0.151 | [19] 0.055 | [5] -0.098 | [6] 0.033 | [10] -0.185 | [13] -0.11 | [15] -0.173 | [18] -0.046

TMEM14C (UniProt Q9P0S9)
inactive: [1] -0.042 | [2] 0.079 | [4] 0.04 | [19] 0.137 | [5] 0.003 | [20] 0.048 | [6] -0.026 | [7] 0.084 | [8] -0.064 | [9] -0.118 | [10] -0.011 | [11] 0.112 | [12] -0.053 | [13] 0.008 | [14] -0.081 | [15] 0.059 | [16] -0.054 | [17] -0.02 | [18] 0.01

TMEM242 (UniProt Q9NWH2)
inactive: [1] 0.039 | [3] -0.093 | [4] -0.14 | [19] 0.076 | [5] 0.077 | [20] -0.052 | [6] 0.042 | [8] 0.015 | [9] -0.032 | [10] -0.011 | [11] 0.057 | [12] -0.035 | [13] -0.013 | [14] 0.071 | [15] 0.042 | [16] 0.085 | [17] 0.067 | [18] 0.055

TMEM267 (UniProt Q0VDI3)
inactive: [2] 0.116 | [4] -0.131 | [5] 0.17 | [20] -0.086 | [7] 0.053 | [8] -0.173 | [9] 0.033 | [10] -0.045 | [15] 0.265 | [16] 0.113 | [17] 0.186

TM2D1 (UniProt Q9BX74)
inactive: [1] 0.231 | [19] 0.218 | [6] 0.082 | [13] -0.044

TMTC4 isoform 3 (UniProt Q5T4D3)
inactive: [2] -0.002 | [19] -0.198 | [6] -0.084 | [7] -0.014 | [9] 0.151 | [13] 0.025

2 neighbouring entries out of the list so far, quoted:
TMEM242 (UniProt Q9NWH2)
inactive: [1] 0.039 | [3] -0.093 | [4] -0.14 | [19] 0.076 | [5] 0.077 | [20] -0.052 | [6] 0.042 | [8] 0.015 | [9] -0.032 | [10] -0.011 | [11] 0.057 | [12] -0.035 | [13] -0.013 | [14] 0.071 | [15] 0.042 | [16] 0.085 | [17] 0.067 | [18] 0.055

TMEM267 (UniProt Q0VDI3)
inactive: [2] 0.116 | [4] -0.131 | [5] 0.17 | [20] -0.086 | [7] 0.053 | [8] -0.173 | [9] 0.033 | [10] -0.045 | [15] 0.265 | [16] 0.113 | [17] 0.186

Continuation:

TMEM50A (UniProt O95807)
inactive: [2] -0.192 | [3] -0.111 | [4] -0.26 | [20] 0.002 | [7] -0.055 | [9] -0.129 | [11] -0.167 | [12] -0.056 | [14] 0.03 | [15] 0.021 | [17] 0.14

TMCC2 (UniProt O75069)
inactive: [4] 0.283 | [19] 0.109 | [6] -0.07 | [11] 0.01 | [12] -0.149 | [13] 0 | [14] -0.085 | [15] 0.245
